Assay results reported in doi:10.1101/2024.09.19.613927.
These are yes or no findings as the source states them, for the method shown. Binding seen in cells or lysates may run through a third protein. Binding can be weak; no strength is given.

Target: mutant HTT (mHTT) of the zQ175 knock-in mouse (human | mouse)
Assay: co-IP

B1: DNA LIG IV, mouse (enzyme, UniProt Q8BTF7 1-911)
chain: MASSQTSQTVAAHVPFADLCSTLERIQKGKDRAEKIRHFKEFLDSWRKFHDALHKNRKDVTDSFYPAMRLILPQLERERMAYGIKETMLAKLYIELLNLPREGKDAQKLLNYRTPSGARTDAGDFAMIAYFVLKPRCLQKGSLTIQQVNELLDLVASNNSGKKKDLVKKSLLQLITQSSALEQKWLIRMIIKDLKLGISQQTIFSIFHNDAVELHNVTTDLEKVCRQLHDPSVGLSDISITLFSAFKPMLAAVADVERVEKDMKQQSFYIETKLDGERMQMHKDGALYRYFSRNGYNYTDQFGESPQEGSLTPFIHNAFGTDVQACILDGEMMAYNPTTQTFMQKGVKFDIKRMVEDSGLQTCYSVFDVLMVNKKKLGRETLRKRYEILSSTFTPIQGRIEIVQKTQAHTKKEVVDALNDAIDKREEGIMVKHPLSIYKPDKRGEGWLKIKPEYVSGLMDELDVLIVGGYWGKGSRGGMMSHFLCAVAETPPPGDRPSVFHTLCRVGSGYTMKELYDLGLKLAKYWKPFHKKSPPSSILCGTEKPEVYIEPQNSVIVQIKAAEIVPSDMYKTGSTLRFPRIEKIRDDKEWHECMTLGDLEQLRGKASGKLATKHLHVGDDDEPREKRRKPISKTKKAIRIIEHLKAPNLSNVNKVSNVFEDVEFCVMSGLDGYPKADLENRIAEFGGYIVQNPGPDTYCVIAGSENVRVKNIISSDKNDVVKPEWLLECFKTKTCVPWQPRFMIHMCPSTKQHFAREYDCYGDSYFVDTDLDQLKEVFLGIKPSEQQTPEEMAPVIADLECRYSWDHSPLSMFRHYTIYLDLYAVINDLSSRIEATRLGITALELRFHGAKVVSCLSEGVSHVIIGEDQRRVTDFKIFRRMLKKKFKILQESWVSDSVDKGELQEENQYLL
  binding: binds
